Among the data in article doi:10.1101/2022.03.04.482948 are binding values, retold here.

The target in this experiment is FAM172A bait of the BioID2-based screen. Put plainly: proximity labelling.

Results are given in words; binding and its absence hold for the method and conditions named. Binding seen in cells or lysates may run through a third protein. A yes stands for co-enrichment or nearness to the bait. Other partners may have been found.

B1: Nucleoporin NUP-93 (protein, UniProt Q8BJ71 1-819)
chain: MDTEGFGELLQQAEQLAAETEGISELPHVERNLQEIQQAGERLRSRTLTRTSQETADVKASVLLGSRGLDISHISQRLESLSAATTFEPLEPVKDTDIQGFLKNEKDNALLSAIEESRKRTFGMAEEYHRESMLVEWEQVKQRILHTLLASGEDALDFTQESEPSYIGDVNPPGRSSLDSIEMAYARQIYIYNEKIVSGHLQPNLVDLCASVAELDDKSISDMWAMVKQMTDVVLTPATDALKSRSSVEVRMDFVKQALGYLEQSYKNYTLVTVFGNLHQAQLGGVPGTYQLVRSFLNIKLPAPSPGLQDGEVEGHPVWALIYYCMRCGDLLAASQVVSRAQHQLGEFKTWFQEYMNSKDRRLSPATENKLRLHYRRALRNNTDPYKRAVYCIIGRCDITDNQSEVADKTEDYLWLKLNQVCFDDDGTSSPQDRLTLSQFQKQLLEDYGESHFTVNQQPFLYFQVLFLTAQFEAAIAFLFRMERLRCHAVHVALVLFELKLLLKSSGQSAQLLSHEPGDPPCMRRLNFVRLLMLYTRKFESTDPREALQYFYFLRDEKDSQGENMFLRCVSELVIESREFDMILGKLENDGSRKPGVIDKFTSDTKPIINKVASVAENKGLFEEAAKLYDLAKNADKVLELMNKLLSPVVPQISAPQSNKERLKNMALSIAERYRAQGISANKFVDSTFYLLLDLITFFDEYHSGHIDRAFDIIDRLKLVPLNQESVEERVAAFRNFSDEIRHNLSEVLLATMNILFTQFKRLKGTSPSSATRPQRVIEDRDSQLRSQARALITFAGMIPYRTSGDTNARLVQMEVLMN
In the case of B1, the binding entry is “binds”.

B2: Importin-4 (protein, UniProt Q8VI75 1-1082)
chain: MEPAGLEQILKELLLPDTERIRRATEQLQTILRDPAALPALFDLLATATDSQIRQFAAVLTRRRLNNRWRRLAPEQRESLKSLVLTALQKETVHSVSVSLAQLSATIFRKEGLQGWPQFMNLLQHSTHSSHSPEKEVGLLLLSVVVSSQPEAFHAHQHELLQLLNETLSDVSFPGVLFYSLRTLTAIARYVRPDDVSLARMLVPKVVTALRTLIPLDEVKACEALEALDEMLETELPIINPHLSEVLTFCLEVAKNVALGEPLRVRVLCCLTFLVKVKSKALLKNRLVPPLLHALFPLMAAEPPMGQLDPEDQDSDDDDLEIGLMGETPKHFAVQVVDMLALHLPPEKLCPHVMPMLEEALRSEDPYQRKAGFLVLAVLSDGAGDHIRQRLLYPLLQIVCKGLDDPSQIVRNAALFALGQFSENLQPHISSYSEEVMPLLLSYLKSVPMGNTHHLAKACYALENFVENLGPKVQPYLPELMECMLQPLKNPSKARTKELAVSAIGAIATAAQDSLLPYFPTIMDLLREFLLTGHEDFHLVQIQSLETLGVLARALGESMKPLAEECCQLGLGLCIHIDDPDVRRCTYSLFAALSGLMGEGLGPYLPQITTLMLLSLRSTEGIVPQYDGISSFLLFDDDSEAEEEEELMDEDMEEEGDDSEISGYSVENAFFDEKEDTCTALGEISMNTCVAFLPFMDATFDEVYKLLECPHMNVRKSAYEALGQFCCALHKASQRSSSDPSSSPVLQTSLARVMPAYMQAVKVERERPVVMAVLESLTGVLRTCGSLALQPPGRLSELCNVLKAVLQKKTACQDAEEDDDEDDDQAEYDAMLLEHAGEAIPVLAATAGGHAFAPFFATFLPLLLCKTKQSCTVAEKSFAVGTLAESIQGLGTASAQFVSRLFPVLLNNAREADPEVRSNAIFGLGVLAEHGGCPAQDHFPKLLGLLLPLLARERHDRVRDNICGALARVLMASPVGKTEPQVLATLLRALPLKEDMEEWLTIGHLFSFLHQNNPEQVVDVASELLRICSLILPDNRIPPDTKAALLLLLTFLAKQHTDSFHTALGSLPNDKAQELQAMMGLT
As for B2, the binding entry is on record as “binds”.

B3: Importin-11 (protein, UniProt Q8K2V6 1-975)
chain: MDLNSASSVVLQVLTQATSQDTAVLKPAEEQLKQWETQPGFYSVLLNIFTNHTLDINVRWLAVLYFKHGIDRYWRRVAPHALSEEEKSTLRAGLITNFNEPINQIATQIAVLIAKVARLDCPRQWPELIPTLVESVKVQDDLRQHRALLTFYHVTKTLASKRLAADRKLFYDLASGIYNFACSLWNHHTDTFLQHVSSGNEAAVLSSLERTLLSLKVLRKLTVNGFVEPHKNMEVMGFLHGIFERLKQFLECSRSIGTDNVCRDRLEKTIILFTKVLLDFLDQHPISFTPLIQRSLEFSVSYVFTEVGEGVTFERFIVQCMNLIKMIVKNYAYKPSKNFEDSSPETLEAHKIKMAFFTYPTLTEICRRLVSHYFLLTEEELTMWEEDPEGFTVEETGGDSWKYSLRPCTEVLFIDIFHEYNQTLTPVLLEMMQTLEGPTNVEDMNALLIKDAVYNAVGLAAFELFDSVDFDQWFKTQLLPELQVSHNRYKPLRRRVIWLIGQWISVKFKSDLRPMLYEAICNLLQDQDLVVRIETATTLKLTVDDFEFRTDQFLPYLETMFTLLFQLLQQVTECDTKMHVLHVLSCVIERVNVQIRPYVGCLVQYLPLLWKQSEEHNMLRCAILTTLIHLVQGLGADSKNLYPFLLPVIQLSTDVSQPPHVYLLEDGLELWLVTLENSPCVTPELLRIFQNMSPLLELSSENLRTCFKIINGYIFLSSTEFLQTYAAGLCQSFYELLPEITTEGQVQVLKVVENALKVNPVLGPQMFQRILPCVFRGVIEGERYPVVMSIYLAVMGRVLLQNTSFFSSLLNEMGHEFNQEMDQLLGNVIEMWVDRMDNITQPERKKLSALALLSLLPSDNSVIQDKFCGIINISVEALHDVMTEDPETRTYKDCMLMSQHEEPKVTEDEEPPTEQDKRKKMLALKDPVHTVSLQQFIYEKLKAQQEILGEQGFQSLMETVDTEIVTQLQEFLQGF
Turning to B3, the binding entry was “binds”.

B4: Nucleoporin NUP-88 (protein, UniProt Q8CEC0 1-753)
chain: MAAAVGPLGDGELWQSWLPNHVVFLRLREGVRNQSPAEAEKPAASTSPSCPSLPPHLPTRNLVFGLGGELFLWDAEGSAFLVVRLRGPSGGGVEPPLSQYQRLLCINPPLFEIHQVLLSPTQHHVALIGSKGLMALELPQRWGKDSEFEGGKATVNCSTIPIAERFFTSSTSLTLKHAAWYPSEMLDPHIVLLTSDNVIRIYSLREPQTPTKVIVLSEAEEESLILNKGRAYTASLGETAVAFDFGPLVTVSKNIFEQKDRDVVAYPLYILYENGETFLTYVSLLHSPGNIGKLLGPLPMHPAAEDNYGYDACAILCLPCVPNILVIATESGMLYHCVVLEGEEEDDQTLEKSWDPRADFIPSLYVFECVELELALKLASGEDDPFASDFSCPIKLHRDPKCPSRYHCSHEAGVHSVGLTWIHKLHKFLGSDEEDKDSLQELTAEQKCFVEHILCTKPLPCRQPAPIRGFWIVPDILGPTMICITSTYECLIRPLLSTVHPASPPLLCTQEDAEVAESPLRILAETPDSFEKHIKRILQRSAANPAFLKNCSARSSEKDLAPPPEECLQLISRATQVFREQYILKQDLAKEEIQRRVKLLCDQKRKQLEDLNYCREERVSHLFRKSLREMAERLADKYEEAKEKQEDIMNRMKKVLHSFHAQLPVLSDSERDMKKELQLIPDQLRHLGNAIKQVTMKKDYQQRKMEKVLSPQKPTITLSAYQRKCIQSILKEEGEHIREMVKQINDIRNHVTF
B4: the binding result was “binds”.

B5: Importin-5 (protein, UniProt Q8BKC5 1-1097)
chain: MAAAAAEQQQFYLLLGNLLSPDNVVRKQAEETYENIPGRSKITFLLQAIRNTTAAEEARQMAAVLLRRLLSSAFDEVYPALPSDVQTAIKSELLMIIQMETQSSMRKKICDIAAELARNLIDEDGNNQWPEGLKFLFDSVSSQNMGLREAALHIFWNFPGIFGNQQQHYLDVIKRMLVQCMQDQEHPSIRTLSARATAAFILANEHNVALFKHFADLLPGFLQAVNDSCYQNDDSVLKSLVEIADTVPKYLRPHLEATLQLSLKLCGDTNLNNMQRQLALEVIVTLSETAAAMLRKHTSLIAQTIPQMLAMMVDLEEDEDWANADELEDDDFDSNAVAGESALDRMACGLGGKLVLPMIKEHIMQMLQNPDWKYRHAGLMALSAIGEGCHQQMEGILNEIVNFVLLFLQDPHPRVRYAACNAVGQMATDFAPGFQKKFHEKVIAALLQTMEDQGNQRVQAHAAAALINFTEDCPKSLLIPYLDNLVKHLHSIMVLKLQELIQKGTKLVLEQVVTSIASVADTAEEKFVPYYDLFMPSLKHIVENAVQKELRLLRGKTIECISLIGLAVGKEKFMQDASDVMQLLLKTQTDFNDMEDDDPQISYMISAWARMCKILGKEFQQYLPVVMGPLMKTASIKPEVALLDTQDMENMSDDDGWEFVNLGDQQSFGIKTAGLEEKSTACQMLVCYAKELKEGFVEYTEQVVKLMVPLLKFYFHDGVRVAAAESMPLLLECARVRGPEYLTQMWHFMCDALIKAIGTEPDSDVLSEIMHSFAKCIEVMGDGCLNNEHFEELGGILKAKLEEHFKNQELRQVKRQDEDYDEQVEESLQDEDDNDVYILTKVSDILHSIFSSYKEKVLPWFEQLLPLIVNLICPQRPWPDRQWGLCIFDDIVEHCSPASFKYAEYFISPMLQYVCDNSPEVRQAAAYGLGVMAQFGGDNYRPFCTDALPLLVRVIQAPEAKTKENVNATENCISAVGKIMKFKPDCVNVEEVLPHWLSWLPLHEDKEEAVQTFSYLCDLIESNHPIVLGPNNTNLPKIFSIIAEGEMHEAIKHEDPCAKRLANVVRQVQTSGGLWTECIAQLSPEQQAAIQELLNSA
Regarding B5, the binding entry is “binds”.

B6: Nucleoporin NUP-50 (protein, UniProt Q9JIH2 1-466)
chain: MAKRVAEKELTDRNWDEEDEVEEMGTFSVASEEVMKNRAVKKAKRRNVGFESDSGGAFKGFKGLVVPSGGGGFSGFGGSGGKPLEGLTNGNSTDNATPFSNVKTAAEPKAAFGSFAVNGPTTLVDKKISSPKCNNSNQPPSSGPASSTACPGNAYHKQLAGLNCSVRDWIVKHVNTNPLCDLTPIFKDYERYLATIEKQLENGGGSSSESQTDRATAGMEPPSLFGSTKLQQESPFSFHGNKAEDTSEKVEFTAEKKSDAAQGATSASFSFGKKIESSALGSLSSGSLTGFSFSAGSSSLFGKDAAQSKAASSLFSAKASESPAGGGSSECRDGEEEENDEPPKVVVTEVKEEDAFYSKKCKLFYKKDNEFKEKGVGTLHLKPTATQKTQLLVRADTNLGNILLNVLIAPNMPCTRTGKNNVLIVCVPNPPLDEKQPTLPATMLIRVKTSEDADELHKILLEKKDA
Turning to B6, the binding entry is listed as “binds”.
